PubChem BioAssay AID602196 | INSERM, 2012

- Aim: 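Genes whose knock-down alters cisplatin killing of lung cancer cells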
- Cell system: human A549 lung cancer cells
- Reagents: siRNA pair against human genes
- Timing: 48 h transfection before cisplatin; time from cisplatin to read-out not stated
- Treatment: cisplatin at a dose killing half of control-siRNA cells; exact dose and duration not given
- Measurement: 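Cisplatin cell death as a shift from the 50% death seen with control siRNA; siRNAs toxic or growth-blocking alone scored 0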
- Scale: two-siRNA summed score (-2 to +2): higher = both siRNAs protect from cisplatin killing; -2 means both sensitise; mean protection from cisplatin (shift in death) and protection from cisplatin (shift in death), siRNA C and protection from cisplatin (shift in death), siRNA D: higher = protection from cisplatin killing
- Hit rule: 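Each siRNA scores 0 if harmful alone by LDH or WST-1, otherwise +1 if it reduces and -1 if it increases cisplatin killing; a gene is active when both siRNAs agree (sum +2 or -2)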
- Meaning of the calls: active = both siRNAs shift cisplatin killing the same way; inactive = no consistent shift, or siRNA harmful alone
The whole screen tested about 23,000 reagents; shown is an unselected part. 455 of all reagents (2%) were called active. 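Active includes both protection and sensitisation; some change values fall well beyond the stated -50 to +50 range.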 Reagents against one gene are numbered here. Not stated in the record: the amount of reagent.

| target | reagent no. | two-siRNA summed score (-2 to +2) | mean protection from cisplatin (shift in death) (%) | protection from cisplatin (shift in death), siRNA C (%) | protection from cisplatin (shift in death), siRNA D (%) | activity call |
| --- | --- | --- | --- | --- | --- | --- |
| ANAPC1P6 | 1 | 2 | 16.2 | 11.1 | 21.3 | active |
| LOC440249 | 1 | 0 | 9.8 | 1.5 | 18 | inactive |
| E2F7 | 1 | -1 | -9.5 | 3.2 | -22.3 | inactive |
| MRPL42 | 1 | 1 | 10.8 | 5.7 | 15.9 | inactive |
| LOC388620 | 1 | 1 | 9.8 | 15 | 4.5 | inactive |
| KLHL12 | 1 | 0 | 14.4 | 17 | 11.8 | inactive |
| LIMK2 | 1 | -1 | -7.5 | 0.3 | -15.3 | inactive |
| WWC2 | 1 | 0 | 5.9 | -1.4 | 13.2 | inactive |
| LOC440863 | 1 | 0 | 10.8 | 11.4 | 10.2 | inactive |
| IGSF11 | 1 | 0 | 4.6 | 11.4 | -2.3 | inactive |
| IGSF11 | 2 | 0 | 5.1 | 6.4 | 3.8 | inactive |
| DDX19A | 1 | 0 | 1.1 | 8.9 | -6.6 | inactive |
| SLC2A1 | 1 | 1 | 8.5 | 16.6 | 0.5 | inactive |
| OR9I1 | 1 | 0 | -4.4 | -11.1 | 2.3 | inactive |
| LOC440583 | 1 | 1 | 6.7 | 12.1 | 1.4 | inactive |
| ARL14EP | 1 | 1 | 16.9 | 14.9 | 18.9 | inactive |
| POLR2I | 1 | 0 | 0.8 | 2.9 | -1.3 | inactive |
| KDM2B | 1 | -1 | -19.3 | -14.5 | -24 | inactive |
| AGL | 1 | 0 | 3 | 0.9 | 5.1 | inactive |
| LOC154907 | 1 | 0 | 7.8 | 4.4 | 11.2 | inactive |
| LOC401945 | 1 | 1 | 16.5 | 10.8 | 22.2 | inactive |
| LOC388549 | 1 | 0 | 14.1 | 17.7 | 10.6 | inactive |
| MYO9A | 1 | 0 | -3.6 | -4.2 | -3 | inactive |
| SUN2 | 1 | 0 | 2.3 | -10.8 | 15.4 | inactive |
| DDC | 1 | 0 | 3.4 | 19.3 | -12.5 | inactive |
| CKLF | 1 | 0 | -14.4 | -7.4 | -21.3 | inactive |
| PRKAB1 | 1 | 1 | 14.6 | 8.4 | 20.9 | inactive |
| EFHD2 | 1 | 0 | -4.7 | 12.3 | -21.8 | inactive |
| ADPRM | 1 | 0 | -0.1 | 12 | -12.1 | inactive |
| BCLAF1 | 1 | 1 | 5.7 | 1.7 | 9.6 | inactive |
| ADRA2C | 1 | 0 | 5.3 | 9.3 | 1.3 | inactive |
| CLASP2 | 1 | 0 | -2.3 | -3.6 | -1.1 | inactive |
| FAM193B | 1 | 0 | -4.9 | -16 | 6.1 | inactive |
| C1QA | 1 | 1 | 11.7 | 5 | 18.5 | inactive |
| PRKCA | 1 | 0 | 10.9 | 21.7 | 0.2 | inactive |
| HLA-A | 1 | 0 | 7.6 | 11.4 | 3.8 | inactive |
| HLA-A | 2 | 0 | 11.7 | 18.8 | 4.5 | inactive |
| PITX2 | 1 | 1 | 17.7 | 18.2 | 17.3 | inactive |
| RPS24 | 1 | 0 | 35.1 | 39.7 | 30.6 | inactive |
| TERB2 | 1 | 0 | 8.6 | 11.1 | 6.2 | inactive |
| HDAC10 | 1 | 0 | 8.5 | 10.9 | 6.2 | inactive |
| DUSP7 | 1 | -1 | -6 | -17.5 | 5.5 | inactive |
| SYNDIG1 | 1 | 0 | -0.1 | 2.8 | -2.9 | inactive |
| LOC389659 | 1 | 0 | 12.9 | 15.9 | 10 | inactive |
| NMBR | 1 | 1 | 2.8 | 15.4 | -9.9 | inactive |
| LOC286144 | 1 | 1 | 17.1 | 17.4 | 16.7 | inactive |
| LOC388794 | 1 | 0 | 2.7 | 0.2 | 5.1 | inactive |
| ESRRG | 1 | 0 | 2.5 | 14.7 | -9.7 | inactive |
| GNB3 | 1 | 0 | 3 | -2.3 | 8.4 | inactive |
| LOC441149 | 1 | 0 | 3.3 | 8.2 | -1.5 | inactive |
| TMC1 | 1 | 0 | 2.3 | 2.1 | 2.5 | inactive |
| OR56A1 | 1 | 0 | 13.5 | 17.2 | 9.9 | inactive |
| LOC146053 | 1 | 0 | 32 | 37.2 | 26.9 | inactive |
| LOC391130 | 1 | 0 | -9.4 | -19.8 | 1 | inactive |
| DAB2 | 1 | 0 | -18 | -36.3 | 0.3 | inactive |
| GJA1 | 1 | 1 | 14.1 | 25.6 | 2.6 | inactive |
| SNAP29 | 1 | 0 | 3.2 | 9.5 | -3.1 | inactive |

An excerpt taken from the entries so far, for reference:
| target | reagent no. | two-siRNA summed score (-2 to +2) | mean protection from cisplatin (shift in death) (%) | protection from cisplatin (shift in death), siRNA C (%) | protection from cisplatin (shift in death), siRNA D (%) | activity call |
| --- | --- | --- | --- | --- | --- | --- |
| EFHD2 | 1 | 0 | -4.7 | 12.3 | -21.8 | inactive |
| ADPRM | 1 | 0 | -0.1 | 12 | -12.1 | inactive |
| BCLAF1 | 1 | 1 | 5.7 | 1.7 | 9.6 | inactive |
| ADRA2C | 1 | 0 | 5.3 | 9.3 | 1.3 | inactive |
